# According to article PMC8313550:
# By UniProt entry, the sequences of proteins in these tests, tags left out.
# UniProt Q04206: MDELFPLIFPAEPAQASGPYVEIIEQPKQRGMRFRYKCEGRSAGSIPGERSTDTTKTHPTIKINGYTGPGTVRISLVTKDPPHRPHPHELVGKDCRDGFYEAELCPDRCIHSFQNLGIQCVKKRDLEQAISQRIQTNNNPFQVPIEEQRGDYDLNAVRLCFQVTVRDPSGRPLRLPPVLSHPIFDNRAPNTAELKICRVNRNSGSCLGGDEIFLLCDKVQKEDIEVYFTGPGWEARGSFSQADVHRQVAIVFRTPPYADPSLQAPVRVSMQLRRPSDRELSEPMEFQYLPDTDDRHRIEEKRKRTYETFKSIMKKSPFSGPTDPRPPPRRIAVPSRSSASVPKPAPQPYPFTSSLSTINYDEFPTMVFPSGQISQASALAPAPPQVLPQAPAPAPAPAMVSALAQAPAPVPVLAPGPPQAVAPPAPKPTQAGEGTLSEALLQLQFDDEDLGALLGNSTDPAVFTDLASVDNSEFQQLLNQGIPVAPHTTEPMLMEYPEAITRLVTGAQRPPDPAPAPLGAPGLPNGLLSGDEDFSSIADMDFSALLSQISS
# Results are given in words; binding and its absence hold for the method and conditions named. Binding seen in cells or lysates may run through a third protein. Some results given as binding are weak or reduced against the parent protein; the word gives no strength. Where a sequence is shown, tags or fusion partners need not be part of it.
# Target: T1, iASPP(295–828)-v5 (UniProt Q8WUF5)
# T1 sequence: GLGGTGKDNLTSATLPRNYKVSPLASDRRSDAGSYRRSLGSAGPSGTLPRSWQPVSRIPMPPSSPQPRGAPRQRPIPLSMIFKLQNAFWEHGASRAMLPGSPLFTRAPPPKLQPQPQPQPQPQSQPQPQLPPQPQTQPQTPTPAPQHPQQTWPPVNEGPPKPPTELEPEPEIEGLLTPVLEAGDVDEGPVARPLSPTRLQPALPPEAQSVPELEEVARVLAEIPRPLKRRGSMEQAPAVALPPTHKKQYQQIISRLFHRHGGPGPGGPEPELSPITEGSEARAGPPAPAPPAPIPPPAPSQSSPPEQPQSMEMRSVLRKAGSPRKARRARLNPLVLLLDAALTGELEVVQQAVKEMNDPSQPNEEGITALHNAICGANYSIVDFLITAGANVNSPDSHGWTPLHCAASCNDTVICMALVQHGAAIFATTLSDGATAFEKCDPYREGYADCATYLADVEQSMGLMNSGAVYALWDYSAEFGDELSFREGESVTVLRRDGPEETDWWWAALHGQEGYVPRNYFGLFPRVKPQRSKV
# Assay: co-IP; in vitro translated proteins diluted in PBS; similar levels of p53-myc or NF-κBp65-myc mixed with the same amount of iASPP-v5; precipitated with anti-v5, co-precipitate detected with anti-myc by western blot
substance,measurement,value
NF-κBp65-myc (from UniProt Q04206 1-551),binding,binds
